According to patent US5225528A (priority 1990, dated 1993):
Values joined by “and” are separate entries in the source; they are usually repeats but may differ in a detail not shown here. Identical values can stand only once.

Legend:
[1] = general procedure: Boc solid-phase peptide synthesis; Boc-L-Pro-O-(PAM)-resin; chloromethylated resin (Merrifield resin); BOP reagent/DIEA for some couplings; acid chloride coupling
[2] = general procedure: Boc solid-phase peptide synthesis; Boc-L-Pro-O-(PAM)-resin; BOP reagent/DIEA for some couplings; acid chloride coupling; details: whole synthesis
[3] = whole synthesis, HPLC Method G, scale of the general procedure 1 mmole, head-to-tail ring
[4] = scale 1 mmole, head-to-tail ring
[5] = scale 0.5 mmole, head-to-tail ring
[6] = late stage modification step, HPLC (Method G), head-to-tail ring
[7] = whole synthesis, 210 nM, scale of the general procedure 1 mmole, head-to-tail ring

Substance | final HPLC purity [1, 3] [%] | isolated mass [2, 4] [mg] | isolated yield [2, 4] [%] | also measured
C-[D-(O-Benzyl)-tyrosinyl-L-isoleucyl-D-pipecolyl-L-(N-t-butyloxycarbonyl)lysyl-D-(N-methyl)phenylalanyl-L-prolyl] | 99 | 700 | 73 | 
C-[D-(O-t-Butyl)Tyrosiniyl-L-isoleucyl-D-pipecolyl-L(N-t-butyloxycarbonyl)lysyl-D-(N-methyl)phenylalanyl-L-prolyl] | 99 |  |  | isolated mass [2, 5]: 700 mg; isolated yield [2, 5]: 73%
Cyclo[D-Trp-L-Ile-D-Pip-L-Pip-D-(N^α Me-O-Bzl)-Tyr-L-Pro] |  |  |  | final HPLC purity ([1]; whole synthesis, HPLC (Method G), scale of the general procedure 1 mmole): 99%; isolated yield ([1]; whole synthesis, scale of the general procedure 1 mmole): 35%; isolated mass ([2]; scale 1 mmole): 350 mg
c-[D-2-Naphthylalanyl-L-isoleucyl-D-pipecolyl-L-(N-t-butyloxycarbonyl)lysyl-D-(N-methyl)phenylalanyl-L-prolyl] | 99 | 300 | 66 | 
c-[D-Phenylalanyl-L-homophenylalanyl-D-pipecolyl-L-pipecolyl-D-(N-methyl)phenylalanyl-L-prolyl] | 95 | 340 | 43 | 
c-[D-Phenylalanyl-L-phenylalanyl-D-pipecolyl-L-pipecolyl-D-(N-methyl)phenylalanyl-L-prolyl] | 95 | 348 | 45 | 
c-[D-Tryptophanyl-L-homophenylalanyl-D-pipecolyl-L-pipecolyl-D-(N-methyl)phenylalanyl-prolyl] | 99 | 520 | 63 | 
c-[D-Tryptophanyl-L-isoleucinyl-D-pipecolyl-L-piperazin-2-yl-D-histidinyl(BOM)-L-prolyl] |  |  |  | final HPLC purity [1, 6]: >99% pure
c-[D-Tryptophanyl-L-isoleucinyl-D-Δ-piperazyl-L-pipecolyl-D-histidyl- L-prolyl] |  |  |  | final HPLC purity [1, 7]: >97% pure
c-[D-Tryptophanyl-L-isoleucinyl-D-Δ-piperazyl-L-piperazin-2-yl(4-Cbz)-N-Me-D-phenylalanyl-L-prolyl] |  |  |  | final HPLC purity ([1]; whole synthesis, 259 nM, scale of the general procedure 1 mmole, head-to-tail ring): >98.4% pure
c-[D-Tryptophanyl-L-isoleucinyl-D-Δ-piperazyl-L-piperazin-2-yl-N^α -Me-D-phenylalanyl-L-prolyl] |  |  |  | final HPLC purity ([1]; late stage modification step, HPLC (Method G)): >96% pure
c-[D-Tryptophanyl-L-isoleucyl-D-pipecolyl-L-pipecolyl-D-(N-methyl)tyrosyl-L-prolyl] |  |  |  | step yield ([1]; late stage modification step, head-to-tail ring, run 1): 94% and 53%
c-[D-Tryptophanyl-L-isoleucyl-D-piperazyl(N^δ -Boc)-L-or nithyl-D-histidyl-L-prolyl] |  |  |  | final HPLC purity ([1]; whole synthesis, HPLC Method L, scale of the general procedure 1 mmole): 92.18%
c-[D-Tryptophanyl-L-phenylalanyl-D-pipecolyl-L-pipecolyl-D-(N-methyl)phenylalanyl-prolyl] | 99 | 611 | 75 | 
c-[D-Trytophanyl-L-isoleucinyl-D-pipecolyl-L-piperazin-2-yl-D-tryptophanyl- L-prolyl] |  |  |  | final HPLC purity ([1]; late stage modification step, 210 nM, head-to-tail ring): >97.7%
c-[D-Tyrosyl-L-isoleucyl-D-piperazyl-L-piperazyl-D-phenylalanyl-L-prolyl] |  |  |  | final HPLC purity [1, 6]: 98.3% pure
c-[N-Me-D-Alanyl-L-isoleucyl-D-pipecolyl-L-pipecolyl-N-Me-D-phenylalanyl-L- prolyl] |  |  |  | final HPLC purity [1, 7]: >96.5% pure
c-[N-Me-D-Homophenylalanyl-N-Me-L-isoleucyl-D-pipecolyl-N-Me-D-phenylalanyl-L-prolyl] |  |  |  | final HPLC purity ([1]; late stage modification step, 215 nM, head-to-tail ring): >97.5% pure; step yield ([1]; late stage modification step, head-to-tail ring): 22.5% yield
c-[Phenylalanyl-L-isoleucinyl-D-piperazin-2-yl(4-Cbz)-D-piperazin-2-yl(4-Cbz)-D-(N^α -methyl)phenylalanyl-L-prolyl] |  |  |  | final HPLC purity ([1]; whole synthesis, 210 nM, scale of the general procedure 1 mmole): >99%
cyclo[D-Phe-L-Ile-D-Pip-L-Pip-D-(N^α Me)Phe-L-Pro] |  |  |  | final HPLC purity ([1]; cyclisation step, HPLC (Method G)): 99%; cyclisation yield ([1]; cyclisation step, from hydrazide): 70%
